Measured values taken from paper PMC4890666.
No constants are given. Whether binding was seen depends on the method and setting. Binding seen in cells or lysates may run through a third protein. Some binding calls cover weakened binding; strength is not graded here. Where a sequence is shown, tags or fusion partners need not be part of it.

Sequences of proteins named here, by UniProt entry; tags and fusion partners are left off.
UniProt Q04205: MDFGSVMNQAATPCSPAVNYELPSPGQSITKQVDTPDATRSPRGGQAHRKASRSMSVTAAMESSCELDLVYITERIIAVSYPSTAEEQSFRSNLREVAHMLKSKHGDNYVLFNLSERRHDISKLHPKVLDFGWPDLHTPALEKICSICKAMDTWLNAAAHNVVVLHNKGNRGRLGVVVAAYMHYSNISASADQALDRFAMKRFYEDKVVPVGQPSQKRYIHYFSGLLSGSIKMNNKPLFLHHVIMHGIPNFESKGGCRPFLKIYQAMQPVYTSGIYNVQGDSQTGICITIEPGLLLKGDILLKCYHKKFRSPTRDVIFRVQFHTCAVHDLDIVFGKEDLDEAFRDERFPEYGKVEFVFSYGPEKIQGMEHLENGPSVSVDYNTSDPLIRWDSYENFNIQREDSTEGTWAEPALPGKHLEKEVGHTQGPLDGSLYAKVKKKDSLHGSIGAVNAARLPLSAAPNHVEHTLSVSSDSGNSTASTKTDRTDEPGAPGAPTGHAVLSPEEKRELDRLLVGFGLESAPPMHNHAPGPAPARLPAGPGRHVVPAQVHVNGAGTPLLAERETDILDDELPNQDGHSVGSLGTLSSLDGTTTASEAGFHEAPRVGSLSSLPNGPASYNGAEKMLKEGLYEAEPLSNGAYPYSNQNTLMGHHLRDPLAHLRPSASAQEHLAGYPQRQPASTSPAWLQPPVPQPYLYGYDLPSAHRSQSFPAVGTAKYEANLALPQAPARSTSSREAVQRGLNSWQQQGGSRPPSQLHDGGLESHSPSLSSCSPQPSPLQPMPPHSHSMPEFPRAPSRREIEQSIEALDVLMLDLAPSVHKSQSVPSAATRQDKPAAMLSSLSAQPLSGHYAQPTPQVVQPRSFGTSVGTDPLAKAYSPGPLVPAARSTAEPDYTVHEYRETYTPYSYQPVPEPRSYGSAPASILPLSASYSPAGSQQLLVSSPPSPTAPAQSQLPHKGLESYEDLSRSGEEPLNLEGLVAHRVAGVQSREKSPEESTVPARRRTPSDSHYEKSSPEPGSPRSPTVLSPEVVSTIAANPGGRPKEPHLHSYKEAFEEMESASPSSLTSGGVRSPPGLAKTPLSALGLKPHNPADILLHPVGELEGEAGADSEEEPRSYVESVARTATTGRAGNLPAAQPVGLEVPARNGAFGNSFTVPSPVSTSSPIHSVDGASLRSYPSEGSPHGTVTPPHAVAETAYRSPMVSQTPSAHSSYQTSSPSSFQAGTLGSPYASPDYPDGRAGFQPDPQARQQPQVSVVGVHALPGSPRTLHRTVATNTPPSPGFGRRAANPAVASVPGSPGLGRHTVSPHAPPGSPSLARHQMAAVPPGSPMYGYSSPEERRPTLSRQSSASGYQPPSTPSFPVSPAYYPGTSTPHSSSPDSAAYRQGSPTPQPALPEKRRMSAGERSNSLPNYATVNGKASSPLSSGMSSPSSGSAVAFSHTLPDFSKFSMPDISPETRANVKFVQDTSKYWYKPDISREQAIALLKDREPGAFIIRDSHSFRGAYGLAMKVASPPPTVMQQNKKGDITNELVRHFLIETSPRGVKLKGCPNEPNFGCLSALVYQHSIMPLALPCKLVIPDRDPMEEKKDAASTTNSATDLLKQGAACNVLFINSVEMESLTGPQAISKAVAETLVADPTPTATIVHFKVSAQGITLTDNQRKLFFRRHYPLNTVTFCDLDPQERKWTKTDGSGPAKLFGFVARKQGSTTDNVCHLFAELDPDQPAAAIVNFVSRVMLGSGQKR

Target: T1, FLAG-tagged wild-type Cas (p130Cas, Crk-associated substrate) (UniProt Q61140)
T1 sequence: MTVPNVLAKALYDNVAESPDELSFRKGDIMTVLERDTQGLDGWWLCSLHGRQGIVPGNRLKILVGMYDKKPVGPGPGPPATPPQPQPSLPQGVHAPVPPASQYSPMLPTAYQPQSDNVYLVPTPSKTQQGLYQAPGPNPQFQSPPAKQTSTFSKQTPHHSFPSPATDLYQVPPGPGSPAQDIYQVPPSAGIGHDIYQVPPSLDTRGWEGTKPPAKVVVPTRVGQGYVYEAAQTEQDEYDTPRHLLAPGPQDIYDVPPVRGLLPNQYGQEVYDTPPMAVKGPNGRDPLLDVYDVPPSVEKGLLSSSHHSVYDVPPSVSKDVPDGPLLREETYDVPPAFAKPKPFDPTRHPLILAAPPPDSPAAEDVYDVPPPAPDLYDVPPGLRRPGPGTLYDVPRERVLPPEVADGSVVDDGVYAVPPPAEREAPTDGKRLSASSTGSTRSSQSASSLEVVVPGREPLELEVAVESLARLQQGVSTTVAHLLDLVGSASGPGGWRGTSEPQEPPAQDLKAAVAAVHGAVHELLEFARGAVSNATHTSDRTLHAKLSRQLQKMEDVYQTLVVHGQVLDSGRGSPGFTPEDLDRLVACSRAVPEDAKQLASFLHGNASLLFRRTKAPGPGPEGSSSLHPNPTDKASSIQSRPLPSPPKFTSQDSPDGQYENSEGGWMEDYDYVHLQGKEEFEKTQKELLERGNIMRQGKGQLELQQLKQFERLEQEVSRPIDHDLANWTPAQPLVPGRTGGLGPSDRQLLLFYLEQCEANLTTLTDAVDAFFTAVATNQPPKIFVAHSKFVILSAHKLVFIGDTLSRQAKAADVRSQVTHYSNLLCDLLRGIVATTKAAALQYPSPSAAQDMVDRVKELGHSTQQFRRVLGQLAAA
Experiment: co-IP; anti-FLAG (M2) Affinity Gel on lysates of HEK293T cells co-transfected 24 h with FLAG-Cas variants and Cerulean-tensin 1 variants; anti-GFP blot detects Cerulean

binding: binds
Substance: Cerulean-tagged tensin 1 (full-length) (from UniProt Q04205 1-1744)
